Experimental data: the supplement of paper PMC10849652
This is one part of the list.

Sequences of proteins named here, by UniProt entry; tags and fusion partners are left off. A change or cut given only in a name is not applied to a line headed by its entry.
UniProt Q9HD20: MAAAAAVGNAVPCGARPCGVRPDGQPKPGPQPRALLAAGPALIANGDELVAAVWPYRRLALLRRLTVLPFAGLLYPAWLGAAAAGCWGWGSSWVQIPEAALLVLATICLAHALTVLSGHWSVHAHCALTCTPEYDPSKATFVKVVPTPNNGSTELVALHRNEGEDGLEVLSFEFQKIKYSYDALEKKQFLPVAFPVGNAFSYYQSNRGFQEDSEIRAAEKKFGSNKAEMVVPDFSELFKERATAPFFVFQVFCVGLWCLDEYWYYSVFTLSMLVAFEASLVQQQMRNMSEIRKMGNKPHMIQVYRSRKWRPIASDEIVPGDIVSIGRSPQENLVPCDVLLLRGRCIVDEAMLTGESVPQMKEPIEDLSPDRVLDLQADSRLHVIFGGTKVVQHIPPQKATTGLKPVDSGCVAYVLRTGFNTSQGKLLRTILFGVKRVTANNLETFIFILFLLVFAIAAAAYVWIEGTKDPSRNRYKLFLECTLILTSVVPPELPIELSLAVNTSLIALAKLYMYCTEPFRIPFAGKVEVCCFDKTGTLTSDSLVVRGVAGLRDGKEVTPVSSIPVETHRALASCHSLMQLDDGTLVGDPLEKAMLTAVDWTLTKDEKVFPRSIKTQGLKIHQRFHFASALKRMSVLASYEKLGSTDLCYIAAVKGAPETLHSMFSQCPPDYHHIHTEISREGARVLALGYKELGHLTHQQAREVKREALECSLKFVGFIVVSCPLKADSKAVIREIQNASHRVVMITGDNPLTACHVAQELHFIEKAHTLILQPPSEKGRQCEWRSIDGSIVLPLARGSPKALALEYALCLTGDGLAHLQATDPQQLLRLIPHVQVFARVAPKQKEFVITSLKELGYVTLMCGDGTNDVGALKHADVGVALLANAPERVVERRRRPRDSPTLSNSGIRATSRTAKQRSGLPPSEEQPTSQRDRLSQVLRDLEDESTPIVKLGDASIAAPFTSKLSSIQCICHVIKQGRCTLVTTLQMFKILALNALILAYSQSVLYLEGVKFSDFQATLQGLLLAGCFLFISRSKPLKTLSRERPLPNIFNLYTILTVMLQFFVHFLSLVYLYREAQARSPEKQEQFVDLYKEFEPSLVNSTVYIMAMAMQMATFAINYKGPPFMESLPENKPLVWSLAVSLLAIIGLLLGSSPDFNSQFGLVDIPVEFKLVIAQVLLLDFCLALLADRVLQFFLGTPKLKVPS
UniProt P30049: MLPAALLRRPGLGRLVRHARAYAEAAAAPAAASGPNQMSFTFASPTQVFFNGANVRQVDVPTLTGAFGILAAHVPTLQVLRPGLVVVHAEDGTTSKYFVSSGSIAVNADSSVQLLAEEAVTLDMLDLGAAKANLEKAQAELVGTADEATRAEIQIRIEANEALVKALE
UniProt P54252: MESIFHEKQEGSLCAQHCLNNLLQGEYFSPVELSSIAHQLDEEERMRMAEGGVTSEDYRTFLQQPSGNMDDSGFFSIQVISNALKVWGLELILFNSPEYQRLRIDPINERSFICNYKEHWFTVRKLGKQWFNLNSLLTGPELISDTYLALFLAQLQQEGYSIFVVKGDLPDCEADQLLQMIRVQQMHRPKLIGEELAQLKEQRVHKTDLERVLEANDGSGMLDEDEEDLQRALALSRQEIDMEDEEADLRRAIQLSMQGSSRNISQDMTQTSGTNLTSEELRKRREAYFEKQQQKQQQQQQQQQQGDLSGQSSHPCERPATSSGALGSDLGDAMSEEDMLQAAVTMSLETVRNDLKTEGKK
UniProt P25311: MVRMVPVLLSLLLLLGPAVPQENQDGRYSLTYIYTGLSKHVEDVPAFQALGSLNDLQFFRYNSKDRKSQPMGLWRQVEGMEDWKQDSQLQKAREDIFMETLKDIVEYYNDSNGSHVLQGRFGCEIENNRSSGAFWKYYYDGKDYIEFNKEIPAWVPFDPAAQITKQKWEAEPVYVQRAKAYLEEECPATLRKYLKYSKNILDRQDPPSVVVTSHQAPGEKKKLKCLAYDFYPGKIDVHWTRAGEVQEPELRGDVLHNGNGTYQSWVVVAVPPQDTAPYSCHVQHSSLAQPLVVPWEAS
UniProt Q96A05, whole entry, looked up: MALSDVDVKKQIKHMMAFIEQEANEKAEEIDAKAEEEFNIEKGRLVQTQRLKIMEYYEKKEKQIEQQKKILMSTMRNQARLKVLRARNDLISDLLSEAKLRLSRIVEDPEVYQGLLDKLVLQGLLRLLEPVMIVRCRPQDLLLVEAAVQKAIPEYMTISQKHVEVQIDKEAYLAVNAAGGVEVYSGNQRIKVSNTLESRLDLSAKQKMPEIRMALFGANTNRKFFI
UniProt Q9NWX5: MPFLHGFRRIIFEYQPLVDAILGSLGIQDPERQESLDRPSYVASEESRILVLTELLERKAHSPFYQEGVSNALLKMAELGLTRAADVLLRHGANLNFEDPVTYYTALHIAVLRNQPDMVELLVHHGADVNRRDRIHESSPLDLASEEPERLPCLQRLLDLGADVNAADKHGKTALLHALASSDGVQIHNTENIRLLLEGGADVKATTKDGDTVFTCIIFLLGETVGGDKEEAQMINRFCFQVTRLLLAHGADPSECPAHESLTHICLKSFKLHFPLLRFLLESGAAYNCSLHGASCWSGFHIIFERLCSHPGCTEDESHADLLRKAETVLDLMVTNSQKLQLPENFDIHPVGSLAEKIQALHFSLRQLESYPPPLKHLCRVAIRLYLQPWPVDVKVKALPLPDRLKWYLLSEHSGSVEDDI
UniProt P36543, whole entry, looked up: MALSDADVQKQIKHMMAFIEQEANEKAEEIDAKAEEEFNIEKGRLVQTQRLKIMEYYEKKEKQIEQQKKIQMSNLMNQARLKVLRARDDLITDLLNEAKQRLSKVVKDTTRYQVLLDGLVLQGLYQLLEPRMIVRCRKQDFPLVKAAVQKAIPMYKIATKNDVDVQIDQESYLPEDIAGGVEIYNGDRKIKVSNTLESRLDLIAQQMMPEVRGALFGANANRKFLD
UniProt P18859: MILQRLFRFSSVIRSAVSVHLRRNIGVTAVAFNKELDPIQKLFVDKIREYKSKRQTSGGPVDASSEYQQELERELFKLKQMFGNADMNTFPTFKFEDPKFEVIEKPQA
UniProt O95352: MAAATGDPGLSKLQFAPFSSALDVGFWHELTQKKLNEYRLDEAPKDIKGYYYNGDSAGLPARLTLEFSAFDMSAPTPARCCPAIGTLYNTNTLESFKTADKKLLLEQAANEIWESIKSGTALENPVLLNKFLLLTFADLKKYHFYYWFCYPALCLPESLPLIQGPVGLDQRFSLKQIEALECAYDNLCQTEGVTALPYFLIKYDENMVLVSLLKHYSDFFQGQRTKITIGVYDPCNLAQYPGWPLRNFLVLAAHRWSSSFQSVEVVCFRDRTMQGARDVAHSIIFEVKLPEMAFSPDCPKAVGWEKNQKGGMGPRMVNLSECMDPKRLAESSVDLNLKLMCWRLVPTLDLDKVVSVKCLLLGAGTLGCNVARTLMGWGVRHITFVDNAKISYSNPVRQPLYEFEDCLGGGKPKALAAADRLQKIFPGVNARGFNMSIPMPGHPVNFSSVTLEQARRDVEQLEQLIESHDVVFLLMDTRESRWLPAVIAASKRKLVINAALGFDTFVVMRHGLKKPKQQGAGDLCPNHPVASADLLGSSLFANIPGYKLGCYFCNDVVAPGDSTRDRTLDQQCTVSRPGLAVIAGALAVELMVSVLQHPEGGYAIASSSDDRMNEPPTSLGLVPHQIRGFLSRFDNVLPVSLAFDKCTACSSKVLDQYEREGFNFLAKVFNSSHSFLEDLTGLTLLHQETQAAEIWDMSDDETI
UniProt Q16864, whole entry, looked up: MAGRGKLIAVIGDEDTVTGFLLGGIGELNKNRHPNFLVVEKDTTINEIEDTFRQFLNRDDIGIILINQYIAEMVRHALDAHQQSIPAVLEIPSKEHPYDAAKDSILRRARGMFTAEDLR
UniProt Q2TAZ0: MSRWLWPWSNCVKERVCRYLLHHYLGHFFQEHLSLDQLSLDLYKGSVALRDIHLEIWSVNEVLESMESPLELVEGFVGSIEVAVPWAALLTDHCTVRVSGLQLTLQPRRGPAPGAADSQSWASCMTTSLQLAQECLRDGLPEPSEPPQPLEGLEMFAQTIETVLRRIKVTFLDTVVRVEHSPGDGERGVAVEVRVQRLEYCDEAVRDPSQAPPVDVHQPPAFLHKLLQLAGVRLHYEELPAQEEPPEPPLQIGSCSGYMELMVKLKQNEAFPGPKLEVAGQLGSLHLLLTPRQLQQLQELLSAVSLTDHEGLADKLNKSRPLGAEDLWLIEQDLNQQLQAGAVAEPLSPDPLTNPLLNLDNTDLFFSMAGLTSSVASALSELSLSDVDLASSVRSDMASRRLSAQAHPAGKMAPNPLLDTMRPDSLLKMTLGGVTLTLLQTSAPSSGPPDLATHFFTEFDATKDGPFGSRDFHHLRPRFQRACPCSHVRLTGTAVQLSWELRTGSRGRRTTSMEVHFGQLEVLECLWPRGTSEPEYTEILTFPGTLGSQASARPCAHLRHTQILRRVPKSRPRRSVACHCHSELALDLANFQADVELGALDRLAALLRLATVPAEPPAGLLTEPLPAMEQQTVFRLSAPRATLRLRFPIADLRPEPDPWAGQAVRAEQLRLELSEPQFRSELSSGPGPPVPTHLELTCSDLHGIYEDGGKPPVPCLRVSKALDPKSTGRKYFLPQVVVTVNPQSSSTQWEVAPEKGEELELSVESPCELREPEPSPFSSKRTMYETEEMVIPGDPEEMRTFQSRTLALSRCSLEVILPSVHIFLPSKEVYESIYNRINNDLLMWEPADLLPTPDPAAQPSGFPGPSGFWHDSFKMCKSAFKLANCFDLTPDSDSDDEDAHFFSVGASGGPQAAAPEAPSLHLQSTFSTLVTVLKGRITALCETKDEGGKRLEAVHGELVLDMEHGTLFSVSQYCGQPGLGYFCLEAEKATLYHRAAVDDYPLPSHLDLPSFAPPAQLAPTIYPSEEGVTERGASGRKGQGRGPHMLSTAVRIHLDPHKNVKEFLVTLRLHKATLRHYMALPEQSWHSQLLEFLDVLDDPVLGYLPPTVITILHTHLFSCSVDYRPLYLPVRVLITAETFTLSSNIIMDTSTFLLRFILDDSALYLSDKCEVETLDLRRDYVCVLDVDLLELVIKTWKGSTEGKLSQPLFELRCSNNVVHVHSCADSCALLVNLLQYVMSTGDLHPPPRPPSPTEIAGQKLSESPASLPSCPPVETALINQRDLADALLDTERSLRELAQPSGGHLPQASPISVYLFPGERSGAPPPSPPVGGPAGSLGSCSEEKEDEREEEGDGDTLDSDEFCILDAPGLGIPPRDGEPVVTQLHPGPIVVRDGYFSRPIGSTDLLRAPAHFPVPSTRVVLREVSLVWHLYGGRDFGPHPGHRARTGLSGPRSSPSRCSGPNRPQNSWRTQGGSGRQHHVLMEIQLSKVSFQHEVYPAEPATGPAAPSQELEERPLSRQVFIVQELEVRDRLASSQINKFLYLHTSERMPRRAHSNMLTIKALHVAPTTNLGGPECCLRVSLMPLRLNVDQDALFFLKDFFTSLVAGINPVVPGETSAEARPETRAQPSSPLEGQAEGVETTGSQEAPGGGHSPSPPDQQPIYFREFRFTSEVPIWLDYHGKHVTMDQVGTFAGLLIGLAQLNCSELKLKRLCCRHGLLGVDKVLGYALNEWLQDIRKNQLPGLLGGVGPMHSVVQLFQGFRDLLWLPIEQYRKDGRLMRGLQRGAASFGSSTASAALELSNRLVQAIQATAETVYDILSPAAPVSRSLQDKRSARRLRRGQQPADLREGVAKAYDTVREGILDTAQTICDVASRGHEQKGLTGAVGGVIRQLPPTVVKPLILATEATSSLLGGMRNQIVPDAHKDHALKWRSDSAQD
UniProt Q9NVP2, whole entry, looked up: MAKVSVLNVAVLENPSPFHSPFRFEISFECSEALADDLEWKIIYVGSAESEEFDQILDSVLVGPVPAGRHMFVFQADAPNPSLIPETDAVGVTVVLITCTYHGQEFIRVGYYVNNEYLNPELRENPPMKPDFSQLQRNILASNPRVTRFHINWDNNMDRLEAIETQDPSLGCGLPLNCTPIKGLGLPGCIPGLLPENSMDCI
UniProt O43681: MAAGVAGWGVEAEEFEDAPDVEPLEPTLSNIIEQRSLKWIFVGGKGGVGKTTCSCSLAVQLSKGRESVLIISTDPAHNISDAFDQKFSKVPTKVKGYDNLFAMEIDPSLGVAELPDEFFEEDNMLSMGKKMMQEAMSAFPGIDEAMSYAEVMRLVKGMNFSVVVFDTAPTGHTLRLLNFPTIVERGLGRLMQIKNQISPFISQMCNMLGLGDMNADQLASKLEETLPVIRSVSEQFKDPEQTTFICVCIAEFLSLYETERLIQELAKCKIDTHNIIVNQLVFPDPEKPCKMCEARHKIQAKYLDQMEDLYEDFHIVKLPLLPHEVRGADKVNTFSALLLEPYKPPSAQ
UniProt P48047: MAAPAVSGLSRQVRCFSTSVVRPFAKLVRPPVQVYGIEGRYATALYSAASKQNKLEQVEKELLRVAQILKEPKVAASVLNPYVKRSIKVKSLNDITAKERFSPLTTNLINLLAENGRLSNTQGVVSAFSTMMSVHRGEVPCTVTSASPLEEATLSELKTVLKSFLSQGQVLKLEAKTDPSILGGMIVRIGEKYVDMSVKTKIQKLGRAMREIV

Compound: C1CN(CCC1(CC2=CC=C(C=C2)Cl)N)C3=NC=NC4=C3C=CN4
Assay: log2 fold change, soluble protein after heating vs DMSO (PISA); higher = thermal stabilisation; K562 lysate, 10 uM; active = over 0.2 and 3.5 SD of the protein, either way, in both replicates (recomputed)
Method in brief: (§1)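 Quantification was by TMTpro 16plex LC-MS/MS with equalised channel sums, applied to the supernatant after 21,000xg for 90 min. Samples were crude K562 extract at 1 mg/mL protein in PBS pH 7.4 with 1 mM MgCl2, treated with 10 μM compound for 30 min, heated for 3 min across 48°C-58°C, pooled and brought to 0.5% NP-40 at 4°C. Values are log-two fold changes in thermal stability relative to solvent controls, from duplicates.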

log2 fold change, inactive:
B3GLCT (UniProt Q6Y288) 0.005
ATP13A1 (UniProt Q9HD20) 0.033
ATP5F1C (UniProt P36542) 0.012
ATP2B4 (UniProt P23634) 0.045
ATP5F1D (UniProt P30049) 0.046
ATP23 (UniProt Q9Y6H3) -0.035
ATXN3 isoform 1 (UniProt P54252) -0.013
AZGP1 (UniProt P25311) -0.26
ASH2L (UniProt Q9UBL3) -0.015
ATG9A (UniProt Q7Z3C6) 0.015
ATP6V1E2 (UniProt Q96A05) -0.002
ATP1A1 (UniProt P05023) -0.001
ATG101 (UniProt Q9BSB4) -0.018
B2M (UniProt P61769) 0.068
ASB6 (UniProt Q9NWX5) 0.327
ATP11A (UniProt P98196) -0.015
ATP6V1E1 (UniProt P36543) 0.036
ATP5PF isoform 2 (UniProt P18859) 0.09
ATP13A2 (UniProt Q9NQ11) 0.013
ATG7 (UniProt O95352) 0.032
ATRIP (UniProt Q8WXE1) -0.057
AVL9 (UniProt Q8NBF6) 0.001
ATP6V1F isoform 2 (UniProt Q16864) 0.017
ASL (UniProt P04424) -0.009
ATE1 isoform 2 (UniProt O95260) 0.013
ATP1A3 isoform 3 (UniProt P13637) 0.014
ATXN10 (UniProt Q9UBB4) 0.021
ATP6V1B2 (UniProt P21281) -0.012
ATG2A isoform 3 (UniProt Q2TAZ0) 0.011
ASF1B (UniProt Q9NVP2) 0.033
ATG4C (UniProt Q96DT6) -0.002
ATP1A4 (UniProt Q13733) 0.017
ASNA1 (UniProt O43681) 0.009
ATP5PO (UniProt P48047) -0.022

Compound: C1COCCN1CCN2C3=CC=CC=C3N=C2NC(=O)C4=CC(=CC=C4)[N+](=O)[O-] [IRAK-1-4 Inhibitor I]
Assay: as above
Method in brief: as §1

log2 fold change, inactive:
B3GLCT (UniProt Q6Y288) 0.048
ATP13A1 (UniProt Q9HD20) 0.015
ATP5F1C (UniProt P36542) -0.007
ATP2B4 (UniProt P23634) -0.028
ATP5F1D (UniProt P30049) 0.041
ATP23 (UniProt Q9Y6H3) -0.045
ATXN3 isoform 1 (UniProt P54252) -0.015
AZGP1 (UniProt P25311) -0.484
ASH2L (UniProt Q9UBL3) -0.021
ATG9A (UniProt Q7Z3C6) 0.004
ATP6V1E2 (UniProt Q96A05) 0.013
ATP1A1 (UniProt P05023) 0.018
ATG101 (UniProt Q9BSB4) -0.024
B2M (UniProt P61769) 0.018
ASB6 (UniProt Q9NWX5) 0.002
ATP11A (UniProt P98196) 0.087
ATP6V1E1 (UniProt P36543) 0.001
ATP5PF isoform 2 (UniProt P18859) -0.026
ATP13A2 (UniProt Q9NQ11) 0.078
ATG7 (UniProt O95352) 0.017
ATRIP (UniProt Q8WXE1) 0.015
AVL9 (UniProt Q8NBF6) 0.003
ATP6V1F isoform 2 (UniProt Q16864) 0.031
ASL (UniProt P04424) 0.011
ATE1 isoform 2 (UniProt O95260) -0.038
ATP1A3 isoform 3 (UniProt P13637) 0.049
ATXN10 (UniProt Q9UBB4) 0.013
ATP6V1B2 (UniProt P21281) 0.033
ATG2A isoform 3 (UniProt Q2TAZ0) 0.041
ASF1B (UniProt Q9NVP2) 0.062
ATG4C (UniProt Q96DT6) 0.012
ATP1A4 (UniProt Q13733) 0.007
ASNA1 (UniProt O43681) -0.018
ATP5PO (UniProt P48047) -0.014
